Six substances from paper PMC5218472 (PLoS Biology, 2017) can be followed below.

HELM strings list residues between dots; [ac] is acetyl, [am] amide, other brackets name non-standard units.

A short description of this series: general procedure: Fmoc solid-phase peptide synthesis; Trt-ChemMatrix resin (PCAS Biomatrix), loading 0.42 mmol/g; HCTU/DIPEA; DIC/HOOBt for Fmoc-Thr(Ac3GalNAc)-OH. Particulars: whole synthesis, scale of the general procedure 500 mg resin.
Consider “PEPTIDE1{N.I.L.F.R.D.S.A.N.A.T.S.L.P.V.Q.A.S.S.S.V.P.L.P}$$$$V2.0”, for which the isolated yield is recorded as 15%.

In turn, “PEPTIDE1{N.I.L.F.R.D.S.A.N.A.T.S.L.P.V.Q.D.S.S.S.V.P.L.P}$$$$V2.0” showed an isolated yield of 15%. The result for “PEPTIDE1{N.I.L.F.R.D.S.A.N.A.[ThrGalNAc].S.L.P.V.Q.A.S.S.S.V.P.L.P}$$$$V2.0” reads 22%. For “PEPTIDE1{N.I.L.F.R.D.S.A.N.A.[ThrGalNAc].S.L.P.V.Q.D.S.S.S.V.P.L.P}$$$$V2.0” the value was 25%; for “PEPTIDE1{N.I.L.F.R.D.S.A.[AsnGlcNAc].A.T.S.L.P.V.Q.A.S.S.S.V.P.L.P}$$$$V2.0”, 17%. The substance “PEPTIDE1{N.I.L.F.R.D.S.A.[AsnGlcNAc].A.T.S.L.P.V.Q.D.S.S.S.V.P.L.P}$$$$V2.0” gave an isolated yield of 16%.
